PubChem BioAssay AID1508587 – Peter MacCallum Cancer Centre, 2020

Aim: 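Knockdowns that add to vemurafenib's cut in melanoma glycolysis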 (follow-up of hits)
System: human WM266.4 melanoma cells with a BRAF V600 mutation
Reagents: single siRNA against human genes, 25 nM
Duration: 96 h
Conditions: vemurafenib 300 nM (about IC25), given 48 h after transfection for 48 h
Measured: 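Per-cell lactate from absorbance divided by DAPI nucleus counts, compared with and without vemurafenib, relative to non-targeting siRNA, mean of 2 replicates; nuclear counts also give cell number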
Direction: lactate per cell, drug vs no drug: higher = less drug-induced drop in lactate per cell; lactate per cell with vemurafenib: higher = more lactate per cell under drug; lactate per cell without drug: higher = more lactate per cell without drug; cell growth with vemurafenib and cell growth without drug: higher = more cell growth over 48 h
Rule for the call: 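a duplex is active when its lactate-per-cell ratio with versus without drug falls under 0.55, i.e. 2 SD below non-targeting; a gene is confirmed if 2 or more of 4 duplexes pass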
This is an unselected part of about 1,600 reagents tested. Over the whole deposit, 623 (39%) got an active call. 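Calls are for each duplex; lactate ratios contain extreme outliers.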 Unmarked entries are inactive. Reagents against one gene are numbered here. No sequences are given here.

target	reagent no.	lactate per cell, drug vs no drug	lactate per cell with vemurafenib	lactate per cell without drug	cell growth with vemurafenib	cell growth without drug
ZNF597	1	0.53 (active)	1.08	1.29	0.91	0.68
ZNF597	2	0.7	2.59	2.35	-0.07	0
ZNF597	3	0.57	1.06	1.17	0.79	0.75
ZNF597	4	0.64	0.96	0.94	0.41	0.7
GALNT2	1	0.49 (active)	0.86	1.15	0.8	0.89
GALNT2	2	0.57	1.6	1.82	0.62	0.41
GALNT2	3	0.47 (active)	0.56	0.78	1.07	1.3
GALNT2	4	0.44 (active)	2.29	3.44	-0.08	-0.12
PCIF1	1	0.7	1.56	1.62	0.03	0.12
PCIF1	2	0.96	1.7	1.28	0.09	0.53
PCIF1	3	0.55	1.06	1.38	0.33	0.17
PCIF1	4	0.84	0.98	0.87	1.05	1.38
CD2AP	1	0.68	1.02	0.94	0.25	0.54
CD2AP	2	0.68	0.87	0.8	0.73	1.09
CD2AP	3	0.55	1.25	1.43	0.36	0.31
CD2AP	4	0.54 (active)	1.4	1.61	0.64	0.49
AGFG1	1	0.98	1.29	0.9	0.3	0.81
AGFG1	2	0.39 (active)	0.8	1.4	-0.04	0.08
AGFG1	3	0.62	1.25	1.4	0.19	0.31
AGFG1	4	0.6	1.08	1.25	0.31	0.37
ARMCX5	1	0.23 (active)	0.84	2.29	0.1	-0.02
ARMCX5	2	0.48 (active)	1.04	1.34	0.72	0.59
ARMCX5	3	0.4 (active)	0.85	1.3	0.72	0.5
ARMCX5	4	0.62	1.22	1.26	0.37	0.54

5 entries from above, limited to “cell growth without drug”:
GALNT2 #1	0.89 (active)
GALNT2 #2	0.41
GALNT2 #3	1.3 (active)
GALNT2 #4	-0.12 (active)
PCIF1 #1	0.12

The list goes on:
target	reagent no.	lactate per cell, drug vs no drug	lactate per cell with vemurafenib	lactate per cell without drug	cell growth with vemurafenib	cell growth without drug
WASHC2C	1	0.7	1.3	1.23	0.47	0.65
WASHC2C	2	0.64	2.42	2.51	0.19	0.11
WASHC2C	3	0.62	0.69	0.74	0.12	0.51
WASHC2C	4	0.68	1.77	1.68	0.56	0.47
JRK	1	0.85	2.62	2.4	0.14	0.18
JRK	2	0.62	2.04	2.38	0.08	0.05
JRK	3	0.84	2.19	1.87	0.29	0.28
JRK	4	0.62	0.72	0.83	0.59	0.93
ZW10	1	0.52 (active)	1.71	2.3	0.06	0.06
ZW10	2	0.42 (active)	0.88	1.42	0.4	0.14
ZW10	3	0.52 (active)	1.17	1.56	0.14	0.21
ZW10	4	0.62	1.6	1.77	0.35	0.36
SDCCAG8	1	0.44 (active)	0.66	1.01	-0.24	0.04
SDCCAG8	2	0.4 (active)	0.86	1.54	0.03	0.15
SDCCAG8	3	0.6	1.38	1.68	0.43	0.38
SDCCAG8	4	0.73	1.94	1.9	0.07	0.14
MNS1	1	0.68	1.58	1.54	0.01	0.18
MNS1	2	0.53 (active)	0.81	1.02	0.51	0.62
MNS1	3	0.54 (active)	0.82	1.01	0.96	0.68
MNS1	4	0.48 (active)	1.05	1.48	-0.1	0.07
TCEAL8	1	0.8	1.7	1.33	0.5	0.54
TCEAL8	2	0.48 (active)	1.15	1.5	0.02	0.04
TCEAL8	3	0.55	1.34	1.54	0.44	0.39
TCEAL8	4	0.64	0.82	0.81	0.66	0.79
ANAPC1	1	0.5 (active)	1.26	1.6	0.36	0.36
ANAPC1	2	0.62	1.45	1.46	0.58	0.57
ANAPC1	3	0.38 (active)	0.52	0.87	0.65	0.78
ANAPC1	4	0.58	1.01	1.09	0.75	0.79
